# This is one part of the list. Values are raw readings; no control value is given beside them.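 Primary screen: polymyxin B was added at a level permeabilizing Salmonella outer membranes while sparing inner membranes. DMSO wells, both with and without polymyxin B, established maximum growth. Plate-to-plate variation meant each plate was ranked on its own, and the lowest-OD600 compounds were selected as hits.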
# System: Salmonella enterica serovar Typhimurium SL1344
# Test: bacterial growth OD600 after 18 h with compound and polymyxin B; higher = more bacterial growth (less inhibition)
# Details: 50 µM, Mueller-Hinton broth
Compound,bacterial growth OD600 (polymyxin B 0.75 µg/mL),bacterial growth OD600 (polymyxin B 1 µg/mL)
CCOC(=O)CCNC(=O)N1CCCC(CNS(=O)(=O)c2cccs2)C1 (stereo not given),0.777,
COc1ccc(F)c(-c2nc(CN(C)C(C)c3cccs3)c(C)o2)c1 (stereo not given),,0.833
CCOC(=O)C1(Cc2ccccc2)CCCN(Cc2cnn(CC)c2)C1 (stereo not given),,0.887
COc1cc(CN(C(=O)c2cccc(-c3cccc(F)c3)c2)[C@H]2CCCCNC2=O)ccc1OCCc1scnc1C,0.52,
COCC(=O)Nc1cc(C(=O)N2CCN(C(C)=O)CC2)c2c(c1)ncn2Cc1ccc(F)cc1,0.811,
CCCCN(C)Cc1cnc(S(=O)(=O)C(C)C)n1Cc1ccccc1F,,0.971
O=C(CCCc1ccccc1)Nc1cccc(N2CCC(NCc3cccnc3)CC2)c1,0.781,
COc1ccc(OCc2cc(C(=O)NCc3cccc(F)c3)no2)c(Cl)c1,,0.739
CCCCN(C)C(=O)c1cn(Cc2ccccc2Cl)nn1,,0.838
CCCOC1CCCN(C(=O)c2cn(Cc3ccccc3C)nn2)C1 (stereo not given),,0.741
CC(C)Cc1cc(CN2CCC(CO)(CCOc3ccccc3)CC2)n[nH]1,0.741,
CSc1ncccc1C(=O)NC1CCCN(CCCc2ccccc2)C1 (stereo not given),,1.17
O=C1O[C@@H]2CN(Cc3ccc(CO)o3)C[C@@H]2N1CCc1ccc(F)cc1,0.816,
COc1ccc(C2(C(=O)NC(C)c3cnn(-c4ccccn4)c3C)CCCC2)cc1 (stereo not given),,0.879
COc1ccc(CCCNC(=O)c2ccc(N3CCCCO3)nc2)cc1,,0.923
Cc1ncc(CN2CCC(C3CCN(CC(C)C)CC3)C2)n1C (stereo not given),0.777,
Cc1cccc(NC(=O)CCC2CCN(Cc3cccc(C)n3)CC2)c1,0.921,
CN(Cc1cccnc1)c1ccc(-c2nc(COc3ccccc3)no2)cn1,,0.778
CCOC(=O)CC1CCCCN1C(=O)c1cn(C2CCCCC2)nn1 (stereo not given),,0.747
Cc1c(CC(=O)N(C)C(C)C)c2c(n1Cc1ccccc1F)CCCC2=O,,0.026

# Four consecutive records from above:
Compound,bacterial growth OD600 (polymyxin B 0.75 µg/mL),bacterial growth OD600 (polymyxin B 1 µg/mL)
CSc1ncccc1C(=O)NC1CCCN(CCCc2ccccc2)C1 (stereo not given),,1.17
O=C1O[C@@H]2CN(Cc3ccc(CO)o3)C[C@@H]2N1CCc1ccc(F)cc1,0.816,
COc1ccc(C2(C(=O)NC(C)c3cnn(-c4ccccn4)c3C)CCCC2)cc1 (stereo not given),,0.879
COc1ccc(CCCNC(=O)c2ccc(N3CCCCO3)nc2)cc1,,0.923
